The other results are listed elsewhere or left out. These are further read-outs of the screen, such as a control signal, another cell line or another target. No call is given for them. The list favours compounds with an active or inconclusive main result. Potencies come from curve fits of mixed quality, noted in brackets.
assay: Cell signaling CRE-BLA (Fsk stim); conditions: CHO CRE-bla reporter (cAMP response element driving beta-lactamase), forskolin EC10, beta-lactamase ratio; measured here: 460 nm blue channel
In short: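 AC50 values, positive or negative, reflect shifts in EC10 NKH 477-induced CRE-bla reporter activity in CHO cells. Incubation lasted 3 h at 37 °C before CCF4 substrate (2 h, room temperature) and ratiometric 460/530 nm reading.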

SMILES | AC50
COC(=O)c1cc(NC(=O)CN(c2ccc3c(c2)OCO3)S(C)(=O)=O)ccc1Cl | 10 µM [rising, partial curve]
Cc1oc(-c2cccs2)nc1CS(=O)CC(=O)NC1CCCCCC1 (stereo not drawn) | 10 µM [falling, partial curve]
O=C(NCc1ccc2c(c1)OCO2)c1cc(-n2cnnc2)ccc1Cl | 25.1 µM [rising, single point]
Cc1nc2cnc(N(C)C)nc2n(CCc2ccccc2)c1=O | 12.6 µM [rising, partial curve]
CCCn1c(SCc2ccccn2)nc2c1c(=O)n(C)c(=O)n2C | 12.6 µM [rising, partial curve]
CS(=O)(=O)N1CCCC(C(=O)NCCCN2CCOCC2)C1 (stereo not drawn) | 0.0794 µM [rising, full curve]
COCCCNC(=O)c1ccc2nc3ccccc3c(=O)n2c1 | 5.01 µM [rising, partial curve]
CCOC(=O)c1c(NC(=O)c2csc(C)c2)sc(C(C)=O)c1C | 6.31 µM [rising, single point]
COc1ccc2cc3cc(C(=O)N4CCN(Cc5ccc6c(c5)OCO6)CC4)oc3nc2c1 | 15.8 µM [falling, partial curve, poor fit]
CC1Cc2ccccc2N1C(=O)CSc1nnc2n1C(C)(C)Cc1ccccc1-2 (stereo not drawn) | 12.6 µM [rising, single point]
COC(=O)c1sccc1NC(=O)c1csc(C)c1 | 25.1 µM [rising, single point]
CCn1c(C(=O)N2CCC(C(=O)NCCCSC3CCCCC3)CC2)cc2sccc21 | 25.1 µM [falling, single point]
C=C(C)COc1ccc(-c2nc(N)nc(C)c2Oc2ccccc2OC)c(O)c1 | 6.31 µM [falling, partial curve]
COc1ccc(-n2c(Cc3cccn3C)nnc2SCC(=O)Nc2cccc(Cl)c2)cc1 | 12.6 µM [falling, partial curve]
COc1ccc2[nH]c(=O)c(CN(C(=O)c3ccco3)C3CCCCC3)cc2c1 | 10 µM [rising, single point]
COC(=O)c1[nH]c2ccc(C)cc2c1NC(=O)CCN1CCN(C2CCCCC2)CC1 | 3.16 µM [falling, single point]
C(=C\CSc1nnnn1-c1ccccc1)/CSc1nnnn1-c1ccccc1 | 20 µM [falling, single point]
COc1cc(C(=O)NCc2cn3ccsc3n2)cc(OC)c1OC | 10 µM [rising, partial curve]
CC(C)Cn1c(N)c(C(=O)COC(=O)c2ccc3ccccc3n2)c(=O)n(C)c1=O | 0.794 µM [rising, full curve]
Cc1cccc2cc(CN(CCN3CCCC3)C(=O)NC3CCCCC3)c(=O)[nH]c12 | 25.1 µM [falling, single point]
Cc1c(S(=O)(=O)Nc2cccc(Cl)c2)c(=O)n(C)c(=O)n1C | 0.631 µM [rising, partial curve]
Cc1cc(C)nc(SCc2csc(N)n2)n1 | 0.631 µM [rising, single point]

SMILES | AC50
O=S(=O)(CCSc1ccccn1)c1nc2ccccc2s1 | 10 µM [falling, partial curve, poor fit]
CC(=O)c1cccc(NC(=O)C2CCN(S(=O)(=O)c3c(C)n[nH]c3C)CC2)c1 | 3.98 µM [falling, full curve, poor fit]
Cn1cnnc1SCC(=O)Nc1sccc1C#N | 3.16 µM [falling, partial curve]
COc1cccc(-c2nn(C)c3sc(C(=O)Nc4ccc5c(c4)OCCO5)cc23)c1 | 6.31 µM [rising, partial curve]
COc1ccc2nc(NC(=O)CSC3=NCCS3)sc2c1 | 25.1 µM [falling, single point]
O=C(CN1C(=O)C2CC=C(Cl)CC2C1=O)NCc1ccccc1 (stereo not drawn) | 0.794 µM [rising, partial curve]
CCN1C(=O)NC2C1N(S(C)(=O)=O)CCN2S(C)(=O)=O (stereo not drawn) | 5.01 µM [falling, partial curve]
O=C(c1ccccc1)c1ccc2nc(N3CCN(C(=O)c4ccco4)CC3)c3nncn3c2c1 | 10 µM [rising, single point]
CCOc1cc(N2CCOCC2)c(OCC)cc1NC(=O)Cn1[nH]c(=O)c2ccccc2c1=O | 0.1 µM [rising, full curve]
CCn1c(SCc2cccnc2)nc2c1c(=O)n(C)c(=O)n2C | 6.31 µM [rising, partial curve]
Cc1ccc(-c2n[nH]c(=O)c3ccccc23)cc1N | 25.1 µM [falling, single point]
N#Cc1nc(-c2ccc(Cl)cc2)oc1NCc1cccc2c1OCO2 | 7.94 µM [rising, partial curve]
COc1ccc(S(=O)(=O)N2CCCC(C(=O)O)C2)cc1 (stereo not drawn) | 0.0631 µM [rising, full curve, poor fit]
O/N=C1\CC/C(=N\O)c2nn(-c3ccccc3Cl)nc21 | 25.1 µM [falling, single point]
COc1ccc(Oc2ncc3nc(-c4cn(C)c5ccccc45)c(=O)n(C4CC4)c3n2)cc1 | 1.26 µM [rising, full curve]
COC(=O)c1sc(N)c(C(=O)OC)c1CSc1nc2sc3c(c2c(=O)n1C)CCC3 | 25.1 µM [rising, single point]
CSC1=NCCN1C(=O)c1ccc(S(=O)(=O)N2CCCCC2)cc1 | 10 µM [rising, single point]
CC(C)c1cccc2nc3c(c(C(C)(C)C)c12)Cn1c-3cccc1=O | 10 µM [rising, partial curve]
O=C(Nc1cccc(-c2nnc(-c3ccccc3)o2)c1)c1ccc(Br)o1 | 12.6 µM [falling, single point]
CC(=O)C1=C(C)NC(C)=C(C(C)=O)C1c1ccc(-c2ccccc2Cl)o1 | 25.1 µM [rising, single point]
COC(=O)c1ccccc1NC(=O)CSc1nc(-c2ccco2)cc(C(F)(F)F)n1 | 1.26 µM [rising, full curve]

Exported field by field: 2 of the compounds above
CCn1c(SCc2cccnc2)nc2c1c(=O)n(C)c(=O)n2C
  AC50: 6.31 µM [rising, partial curve]
Cc1ccc(-c2n[nH]c(=O)c3ccccc23)cc1N
  AC50: 25.1 µM [falling, single point]

From PubChem BioAssay AID662 (National Center for Advancing Translational Sciences (NCATS), 2007)
